Earlier results in patent EP0147926B1, “Oral anti-cancer compositions” (priority 1983, dated 1985).
Read-outs that look alike come from different tables or passages of the source.

System: ADJ/PC6A plasmacytoma

## N.N.O=C([O-])C1(C(=O)[O-])CCC1.[Pt+2] [cis-[diammine-(1,1-cyclobutanedicarboxylato)platinum(II)l]
Administered orally
  therapeutic index: 2.4
Administered parenterally
  therapeutic index: 12.4
